Assay results: patent US20120258967A1, “PI3 KINASE INHIBITORS AND USES THEREOF” (AVILA THERAPEUTICS, INC., priority 2011, published 2012)
pIC50: −log10 of the molar value. Like-named read-outs stand apart in the source and are kept apart here. For some of these results: At least one structure is not confirmed: it was looked up by name or label, or the drawing left a doubt. Some entries share one result that the patent states for a list of compounds.

Protein sequences, listed by entry. Tags and fused reporters are not part of them.
UniProt P42336, whole entry: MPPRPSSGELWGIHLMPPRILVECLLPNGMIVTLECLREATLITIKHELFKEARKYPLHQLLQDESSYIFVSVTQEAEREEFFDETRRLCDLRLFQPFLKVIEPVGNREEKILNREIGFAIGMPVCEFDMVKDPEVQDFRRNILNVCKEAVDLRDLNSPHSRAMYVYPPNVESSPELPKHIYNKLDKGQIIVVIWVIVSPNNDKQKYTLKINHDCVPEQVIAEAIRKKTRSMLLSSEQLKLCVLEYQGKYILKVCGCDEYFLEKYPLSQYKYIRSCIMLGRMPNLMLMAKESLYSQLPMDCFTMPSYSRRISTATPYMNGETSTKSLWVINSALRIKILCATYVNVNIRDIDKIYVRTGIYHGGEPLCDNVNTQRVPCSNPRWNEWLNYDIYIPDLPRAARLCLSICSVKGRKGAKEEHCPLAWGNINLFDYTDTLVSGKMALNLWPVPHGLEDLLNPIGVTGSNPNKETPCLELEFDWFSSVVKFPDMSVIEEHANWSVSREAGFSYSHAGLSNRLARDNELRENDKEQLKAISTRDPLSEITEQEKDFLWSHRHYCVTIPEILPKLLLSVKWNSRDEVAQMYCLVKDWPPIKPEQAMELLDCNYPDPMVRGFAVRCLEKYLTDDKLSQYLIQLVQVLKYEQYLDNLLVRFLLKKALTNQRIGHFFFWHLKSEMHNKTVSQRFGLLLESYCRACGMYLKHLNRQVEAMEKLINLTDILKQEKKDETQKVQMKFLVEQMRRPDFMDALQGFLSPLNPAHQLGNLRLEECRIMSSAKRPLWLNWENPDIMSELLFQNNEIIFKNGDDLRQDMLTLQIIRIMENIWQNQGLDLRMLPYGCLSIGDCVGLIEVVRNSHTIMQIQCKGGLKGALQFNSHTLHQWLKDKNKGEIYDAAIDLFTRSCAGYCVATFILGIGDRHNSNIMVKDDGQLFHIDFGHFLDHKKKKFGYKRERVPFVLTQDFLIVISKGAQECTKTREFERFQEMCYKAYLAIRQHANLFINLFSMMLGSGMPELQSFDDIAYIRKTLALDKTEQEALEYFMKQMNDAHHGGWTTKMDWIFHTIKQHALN

Experiments:
PI3Kα = biological target: T1, PI3Kα (Homo sapiens, UniProt P42336); assay: Mass spectrometry for PI3K (covalent modification of intact protein, MALDI); assay type: binding; conditions: intact PI3Kα incubated 1 hr, 10-fold excess of compound to protein
T1 construct: purchased Millipore 14-602
Method: Mass Spectrometry for PI3K
Intact PI3Kα (Millipore, 14-602) was incubated for 1 hr at a 10-fold excess of I-11 to protein. Aliquots (5 μl) of the samples were diluted with 15 μl of 0.2% TFA prior to micro C4 ZipTipping directly onto the MALDI target using Sinapinic acid as the desorption matrix (10 mg/mL in 0.1% TFA:Acetonitrile 50:50). […] Other compounds that modify PI3Kα >50% after 1 hr include I-1, I-2, I-12, I-17, and I-19.

p110α/p85α-p120γ enzymes [1] = assay: HTRF assay, reference inhibitors on p110α/p85α-p120γ enzymes; assay type: biochemical; conditions: n=6, read-out: Reference Inhibitor IC50 estimated for p110α/p85α-p120γ enzymes
p110α/p85α-p120γ enzymes [2] = conditions: published value; cited from earlier work

SMILES | modification of PI3Kα (PI3Kα) [%] | pIC50 (p110α/p85α-p120γ enzymes [1]) | pIC50 (p110α/p85α-p120γ enzymes [2])
Nc1ncc(-c2cc(N3CCN(C(=O)Cc4ccc(NC(=O)/C=C(\c5ccccc5)C(F)(F)F)cc4)CC3)cc(N3CCOCC3)n2)cn1 [I-12] | > 50 | – | –
CN(C)C/C=C/C(=O)Nc1ccc2sc(N3CCN(c4cc(-c5cnc(N)nc5)nc(N5CCOCC5)c4)CC3)nc2c1 [I-19] | > 50 | – | –
O=c1cc(N2CCOCC2)oc2c(-c3ccccc3)cccc12 [LY294002] | – | 5.30 to 5.70 | 5.52 to 6.15
C=CC(=O)Nc1ccc2sc(N3CCN(c4cc(-c5cnc(N)nc5)nc(N5CCOCC5)c4)CC3)nc2c1 [I-17] | > 50 | – | –
CC(C)=CC(=O)CCC(=O)Nc1ccc(C#Cc2cc(-c3cnc(N)nc3)nc(N3CCOCC3)c2)cc1 [I-2, N-(4-((2-(2-aminopyrimidin-5-yl)-6-morpholinopyridin-4-yl)ethynyl)phenyl)-6-methyl-4-oxohept-5-enamide] | > 50 | – | –
CC(C)=CC(=O)CCC(=O)N1CCN(c2ccc(-c3cc(-c4cnc(N)nc4)nc(N4CCOCC4)c3)cc2)CC1 [I-1, 1-(4-(4-(2-(2-aminopyrimidin-5-yl)-6-morpholinopyridin-4-yl)phenyl)piperazin-1-yl)-6-methylhept-5-ene-1,4-dione] | > 50 | – | –
